This test can be described thus: qHTS Assay for Lipid Storage Modulators in Drosophila S3 Cells.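 For cell number change: cells counted by Cell Tracker Red CMTPX staining in the red channel.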 The settings on record: BODIPY lipid droplet fluorescence, 18-24 h; for cell number change: measured here: cell count max response, cells fed with added oleic acid. The essentials: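 Laser-scanning cytometry quantifies lipid droplet accumulation (500–530 nm total intensity; droplet/cell object ratio) in oleic acid-fed (400 uM added) Drosophila S3 cells treated with a concentration series. 20 uM Triacsin C defined 100% inhibition.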
(In qHTS, concentration-response curves come from the screen itself.)

[1] abbreviates: measured here: cell number channel AC50, cells fed with added oleic acid.
Setting [2] is: measured here: lipid fluorescence (Fed channel) AC50, cells fed with added oleic acid.

The list shows a part of the results. Further columns of the screen follow, without active or inactive calls. The list favours compounds with an active or inconclusive main result. The note in brackets gives the kind of curve behind each potency; many fits are weak.

By AC50 is commonly meant the concentration at which the activity in the assay is half-maximal. High values mean weaker potency, low ones greater potency. Consider `Cc1c(/C=C(\C#N)C(=O)NCc2ccccc2)cc(C#N)n1C`, for which the cell number change was -1.59%. Under setting [1], the AC50 is 0.731 µM [rising, full curve, poor fit]. In addition, under setting [2], the AC50 is 0.82 µM [rising, partial curve, poor fit].

For `CC(=O)c1cccc(NC(=O)c2c(F)c(F)c(F)c(F)c2F)c1`, the cell number change was -25.1%. Also, under setting [2], the AC50 is 11.6 µM [falling, partial curve].

Turning to `Cc1ccc(C)c(NC(=O)CCn2nc(C)cc2C)c1`, the cell number change was 20.8%. Besides, the AC50 under setting [2] was 0.146 µM [rising, full curve, poor fit].

Turning to `Cc1ccc(NC(=O)CSc2ccccc2NC(=O)c2ccccc2)cc1Cl`, the half-maximal activity concentration (AC50) under setting [2] was 13 µM [falling, partial curve].

Regarding `CCOC(=O)C1(CCOc2ccccc2)CCN(Cc2ccc(O)c(OC)c2)CC1`, the cell number change is -27%.

Turning to `CCOC(=O)C1CCCN(C(=O)c2cccc(S(=O)(=O)N(C)c3ccc(C)cc3)c2)C1` (centres undefined), the cell number change was 0.367%. Also, the AC50 under setting [2] was 6.51 µM [falling, partial curve].

Take `CC(C)c1ccc2oc(-c3cc(N)ccc3O)nc2c1`: the cell number change was 6.59%.

`O=[N+]([O-])c1ccccc1CNCCO`: the cell number change was -0.99%. The AC50 under setting [1] is 0.00461 µM [falling, full curve, poor fit]. In addition, the AC50 under setting [2] is 25.9 µM [falling, partial curve, poor fit].

As for `CCOC(=O)c1sc(NC(=O)/C=C/c2cnn(C)c2C)c(C(=O)OCC)c1C`, the cell number change was -2.3%. Further, the AC50 under setting [2] was 0.0461 µM [rising, full curve, poor fit].

`COc1ccc(N2C(=O)C3CC=C(Cl)CC3C2=O)cc1` (centres undefined): the cell number change worked out at 30.3%. Under setting [1], the half-maximal activity concentration (AC50) was 14.6 µM [rising, partial curve, poor fit].

Turning to `c1cncc(-c2nnc3sc(-c4ccco4)nn23)c1`, the cell number change is 6.23%.

`Cc1ccc(C)c(N(CC(=O)NC2CCCCC2)C(=O)CCC(=O)Nc2ccccn2)c1`: the cell number change was 30.7%. The AC50 under setting [1] is 2.31 µM [rising, partial curve, poor fit].

With `CC(C)(C)C1CCc2[nH]c3ccccc3c(=O)c2C1` (centres undefined), the cell number change was -9.84%. Besides, the AC50 under setting [2] was 20.6 µM [rising, single point].

`COc1cc(/C(C)=N/N2CCN(c3ccccc3OC)CC2)ccc1O`: the cell number change is 2.65%. The half-maximal activity concentration (AC50) under setting [2] was 6.51 µM [falling, single point].

In the case of `COc1ccc(S(=O)(=O)N2CCOCC2)cc1NC(=O)Cc1c(Cl)cccc1Cl`, the cell number change is -20.1%. Also, the AC50 under setting [1] was 1.84 µM [falling, full curve, poor fit].

As for `Cc1ccc2c(CC(=O)OC3CCOC3=O)coc2c1` (centres undefined), the cell number change is -20.6%. Besides, the AC50 under setting [1] was 1.64 µM [falling, partial curve, poor fit]. In addition, the concentration at half-maximal activity (AC50) under setting [2] was 3.66 µM [falling, full curve].

With `CCCN(Cc1cc2ccc(C)cc2[nH]c1=O)C(=O)c1cccnc1`, the cell number change stood at 12.3%. Further, the AC50 under setting [2] was 0.0291 µM [rising, full curve, poor fit].

With `COc1ccc(CCNC(=O)Cn2c(=O)oc3cc(Cl)ccc32)cc1OC`, the cell number change is -0.337%. Besides, the AC50 under setting [1] was 0.184 µM [falling, full curve, poor fit].

Turning to `COCCN(CC(=O)Nc1cccc(C)c1C)C(=O)c1ccc2c(c1)OCO2`, the cell number change turned out to be 75%. Besides, the AC50 under setting [1] is 6.51 µM [falling, single point]. Also, the AC50 under setting [2] is 0.092 µM [rising, full curve, poor fit].

Consider `CCOc1ccc(OCc2ccc(C(=O)N(C)c3ccccc3)o2)cc1`, for which the cell number change is 21.4%. For the same molecule, the AC50 under setting [2] was 29.1 µM [rising, single point].

Consider `O=C(CSc1nnc(CCc2nc3ccccc3[nH]2)n1-c1ccccc1)NCc1ccco1`, for which the cell number change was 21%.

As to `CCOC(=O)c1cnc2ncnn2c1N`, the cell number change is -43.6%. Besides, the AC50 under setting [1] was 29.1 µM [falling, single point]. The AC50 under setting [2] was 29.1 µM [falling, single point].

For the molecule `COC(=O)[C@@]12CCCN1[C@H](c1ccc(-c3ccc(OC)cc3)c(OC)c1)[C@@H]1C(=O)N(C)C(=O)[C@@H]12`, the cell number change was -30.4%. Moreover, under setting [1], the half-maximal activity concentration (AC50) was 4.11 µM [falling, partial curve].

With `O=S(=O)(Nc1ncnc2sc3c(c12)CCC3)c1ccc(Cl)s1`, the cell number change was -17.4%. The AC50 under setting [2] was 29.1 µM [rising, single point].

Consider `CCOC(=O)c1ccc(-c2c(-c3ccccc3OC)oc3ccccc23)cc1F`, for which the cell number change is 8.86%. Besides, under setting [2], the AC50 was 0.103 µM [rising, full curve, poor fit].

`COc1cccc(Cl)c1NC(=O)N1CCN(c2ccnc3cc(Cl)ccc23)CC1`: under setting [1], the AC50 is 6.51 µM [rising, single point].

Consider `CC(N=c1ccccn1C(=O)Nc1cccc(C(F)(F)F)c1)c1ccco1` (centres undefined), for which the cell number change is 1.08%. Moreover, the AC50 under setting [2] was 29.1 µM [rising, single point].

As for `COC(=O)c1cc(-c2c(-c3cc(OC)c(OC)c(OC)c3)noc2C)cc([N+](=O)[O-])c1`, the cell number change turned out to be 16.8%.

In the case of `O=C(O)c1cccc(S(=O)(=O)Nc2ccc(S(=O)(=O)N3CCOCC3)cc2)c1`, the AC50 under setting [1] was 0.146 µM [falling, full curve, poor fit] and the AC50 under setting [2] is 0.82 µM [falling, partial curve, poor fit].

For the molecule `O=C(N[C@@H](Cc1ccccc1)C(=O)N1CCC2(CC1)NCCc1[nH]cnc12)c1cccc(Br)c1`, the cell number change came out at 17.8%.

`CC(C)Oc1ccc(S(=O)(=O)N2CCCCC2)cc1NC(=O)CN1C(=O)NC2(CCCC2)C1=O`: the cell number change worked out at 98%. Further, under setting [1], the AC50 was 20.6 µM [rising, partial curve].

Regarding `Cc1cc(NC(=O)c2ccc([N+](=O)[O-])cc2)no1`, the AC50 under setting [2] is 0.731 µM [falling, full curve].

As for `Cc1cccc(C)c1NC(=O)CN(C)C(=O)c1ccc2c(=O)n3c(nc2c1)CCC3`, the cell number change worked out at 42.5%. Further, the AC50 under setting [1] is 4.61 µM [rising, partial curve, poor fit]. Under setting [2], the AC50 is 16.4 µM [rising, partial curve].

Turning to `CC1CN(C(=O)c2cc3cc(F)ccc3[nH]2)CC(C)O1` (centres undefined), the cell number change was -7.75%.

On to `O=C(c1ccccc1)N1CCN(S(=O)(=O)c2cccs2)CC1`, for which the cell number change was determined as 7.34%.

Regarding `COc1ccc(CC(=O)NNC(=O)CN(C)S(=O)(=O)c2ccc(Cl)cc2)cc1OC`, the cell number change is -17.9%. Further, the AC50 under setting [2] was 1.03 µM [falling, full curve].

Take `COc1cc(C2C3=C(CCCC3=O)Nc3c2c(C)nn3-c2cccc(C)c2)cc(OC)c1O` (centres undefined): the cell number change was -37.9%. The AC50 under setting [1] was 13 µM [falling, single point]. The AC50 under setting [2] is 18.4 µM [falling, single point].

As for `Cc1ccc(SCC(=O)O/N=C(\N)c2ccncc2)cc1`, the cell number change was -12.4%. For the same molecule, under setting [2], the AC50 is 29.1 µM [falling, single point].

For `COCCCn1nnnc1SCC(=O)N1c2ccccc2CC1C` (centres undefined), the cell number change is 14.6%. The AC50 under setting [2] is 6.51 µM [falling, single point].

With `Cc1ccc(-c2cc(C(=O)Nc3ccncc3)c3ccccc3n2)cc1`, the cell number change is 32%. Also, the AC50 under setting [1] is 6.51 µM [rising, partial curve, poor fit]. The AC50 under setting [2] was 6.51 µM [rising, single point].

`Cc1cccc2nc(CSCc3ccco3)cn12`: the cell number change was 38.3%. In addition, the AC50 under setting [1] was 29.1 µM [rising, single point]. The AC50 under setting [2] was 16.4 µM [rising, partial curve].

With `CCOC(=O)CSc1nc(C)cc(=O)[nH]1`, the cell number change was found to be 4.31%.

For the molecule `Cc1ccc(-n2c(SCC(=O)N3CCOCC3)nc(O)c(Cc3ccccc3)c2=O)cc1`, the cell number change was -6.25%. Moreover, under setting [2], the AC50 is 0.259 µM [falling, full curve, poor fit].

Regarding `CCCCc1ccc(NS(=O)(=O)c2c(C)n(C)c(=O)n(C)c2=O)cc1`, the cell number change came out at 34.9%. The AC50 under setting [1] was 5.8 µM [rising, full curve, poor fit].

In the case of `CCn1c(SCc2ccc(F)cc2)nc2ccccc2c1=O`, the concentration at half-maximal activity (AC50) under setting [2] is 7.31 µM [rising, partial curve].

Regarding `Cc1ccccc1NC1=NC2(CCCC2)N=C(N)N1`, the AC50 under setting [2] was 0.00461 µM [falling, full curve, poor fit].

`O=C(COC(=O)/C=C/c1cccc(Cl)c1)NC1CCCC1`: the cell number change is 13.8%. Further, the AC50 under setting [2] is 4.61 µM [rising, full curve].

Turning to `O=C(NCc1ccncc1)Nc1ccccc1Cl`, the cell number change amounted to 15.4%. Moreover, the AC50 under setting [2] was 29.1 µM [rising, single point].

In the case of `Cc1ccc(CN2CCN(CC3CC4C=CC3C4)CC2)cc1` (centres undefined), the cell number change is -4.5%. Moreover, the concentration at half-maximal activity (AC50) under setting [2] was 0.0461 µM [falling, full curve, poor fit].

Regarding `COc1ccc(-c2nn3c(-c4ccccc4)nnc3s2)cc1OC`, the cell number change is -32.4%. Moreover, the AC50 under setting [1] is 8.2 µM [falling, partial curve, poor fit].

Consider `C/C(N)=C(/C#N)C(=O)COC(=O)C1Cc2ccccc2CN1S(C)(=O)=O` (centres undefined), for which the cell number change amounted to 28%. The half-maximal activity concentration (AC50) under setting [1] is 0.731 µM [rising, full curve, poor fit].

With `O=C(NCC(O)COc1ccc([N+](=O)[O-])cc1)c1ccccc1` (centres undefined), the cell number change is 27.9%. Under setting [2], the AC50 is 0.116 µM [falling, full curve, poor fit].

For `CCO[C@H]1OC(C(N)=O)=C[C@@H](c2ccc(Br)cc2)[C@@H]1CCCO`, the cell number change was 14.9%. In addition, the AC50 under setting [2] was 0.731 µM [rising, partial curve].

For the molecule `Cc1cc2cc(C(c3nnnn3Cc3ccco3)N3CCc4ccccc4C3)c(=O)[nH]c2cc1C` (centres undefined), the cell number change was determined as 1%. Moreover, the AC50 under setting [2] is 10.3 µM [rising, partial curve].

For `Cc1csc(NC(=O)c2cc3c(s2)-c2ccccc2OC3)n1`, the cell number change is -40.2%. Also, the AC50 under setting [1] is 23.1 µM [falling, single point].

Take `CCCOc1ccc(CNC(=S)N/N=C/c2ccc([N+](=O)[O-])cc2)cc1`: the cell number change was 17.6%. Further, the AC50 under setting [2] was 2.91 µM [rising, partial curve].

On to `CCOC(=O)Cn1c(C)cc(COC)c(C#N)c1=O`, for which the cell number change was 8.83%. Besides, the AC50 under setting [2] was 6.51 µM [falling, single point].

`C=CCOc1c(Br)cc(/C=N/NC(N)=O)cc1OC`: the cell number change worked out at 18%. The concentration at half-maximal activity (AC50) under setting [2] is 0.517 µM [rising, partial curve].

On to `COc1cc(CNCCc2c[nH]c3ccccc23)ccc1OCc1ccccc1F`, for which the cell number change is -58.5%. Besides, the AC50 under setting [1] is 29.1 µM [falling, single point]. In addition, the AC50 under setting [2] was 29.1 µM [falling, single point].

For the origin of these results see PubChem BioAssay AID2685 (National Center for Advancing Translational Sciences (NCATS), 2010).
